The test concerns L1210 leukemia ip in BDF1 mice, survival T/C. The test can be described thus: NCI In Vivo Anticancer Drug Screen. Data for tumor model L1210 Leukemia (intraperitoneal) in B6D2F1 (BDF1) mice. The conditions noted are these: higher T/C = longer survival.
The mark [1] stands for this setting: T/C endpoint: mean survival time, dose: 16.0 mg/kg/injection, schedule: Q01DX009 (ip), vehicle: saline.

The list shows only some results of the screen, not a fair sample: it is rich in T/C values a quarter to a half above the control, in often repeated tests (any T/C) and in doses without a T/C. Further doses and runs are listed elsewhere. T/C gives the treated animals as a percentage of the vehicle group. Some entries give survivors of the animals treated and no T/C: the source files T/C as zero there, which appears to mark a toxic dose or a test without result, not a measured value. Some survivor counts are full or nearly so, which does not show that the dose was tolerated: the source hardly ever lists a survival T/C far under the control, and the zero likely stands for such cases as well. Counts of survivors are from the toxicity check (mostly the fifth day) where no day follows; animals may have died later. Schedule codes are those of the source, taken here to give the interval after Q, in days (D) or hours (H), and the number of doses after X. Some structures stand for samples that the source files as different forms (salt, stereo form or complex); doses refer to the form tested. Some entries hold several experiments; the results are listed from low to high. For survival time, the PubChem record calls one and a half times the control and up active, and a quarter to a half above the control has no call in these data; cut-offs in other NCI protocols can differ. Some T/C values are followed by the survivors on the day toxicity was checked, most often the fifth; where none is given, no animal had died by that day.

`CCC1=C(C[C@H]2NCCc3cc(OC)c(OC)cc32)C[C@H]2c3cc(OC)c(OC)cc3CCN2C1`: the T/C was 130 % of control (T/C endpoint: mean survival time, dose: 2.0 mg/kg/injection, schedule: Q03HX024 (ip), vehicle: saline); 129 % of control [8 of 10 alive] (T/C endpoint: mean survival time, dose: 4.0 mg/kg/injection, schedule: Q03HX008 (ip), vehicle: saline); 127 % of control (T/C endpoint: mean survival time, dose: 4.0 mg/kg/injection, schedule: Q03HX016 (ip), vehicle: saline); 134 % of control (T/C endpoint: mean survival time, dose: 4.0 mg/kg/injection, schedule: Q03HX024 (ip), vehicle: saline); 100, 113, 129, 131 % of control (T/C endpoint: mean survival time, dose: 8.0 mg/kg/injection, schedule: Q01DX005 (ip), vehicle: saline, evaluated on day 30); 124 % of control (T/C endpoint: mean survival time, dose: 8.0 mg/kg/injection, schedule: Q01DX005 (ip), vehicle: saline, evaluated on day 60). The T/C is 125 % of control [9 of 10 alive] (T/C endpoint: mean survival time, dose: 8.0 mg/kg/injection, schedule: Q01DX009 (ip), vehicle: saline); 132 % of control (T/C endpoint: mean survival time, dose: 9.28 mg/kg/injection, schedule: Q01DX005 (ip), vehicle: saline); 131, 132, 186 % of control (T/C endpoint: mean survival time, dose: 16.0 mg/kg/injection, schedule: Q01DX005 (ip), vehicle: saline, evaluated on day 30); 102 % of control [8 of 10 alive] (T/C endpoint: mean survival time, dose: 16.0 mg/kg/injection, schedule: Q01DX005 (ip), vehicle: saline, evaluated on day 60); 147 % of control under setting [1]; 105, 113, 115, 134 % of control (T/C endpoint: mean survival time, dose: 16.0 mg/kg/injection, schedule: Q04DX003 (ip), vehicle: saline, evaluated on day 30). Moreover, the T/C reads like this: (T/C endpoint: mean survival time, dose: 16.0 mg/kg/injection, schedule: Q04DX003 (ip), vehicle: saline, evaluated on day 60) 123 % of control; (T/C endpoint: mean survival time, dose: 18.56 mg/kg/injection, schedule: Q04DX003 (ip), vehicle: saline) 139 % of control; (T/C endpoint: mean survival time, dose: 32.0 mg/kg/injection, schedule: Q01DX001 (ip), vehicle: saline) 132 % of control [8 of 10 alive]; (T/C endpoint: mean survival time, dose: 32.0 mg/kg/injection, schedule: Q04DX003 (ip), vehicle: saline, evaluated on day 30) 112, 126, 134, 143 % of control; (T/C endpoint: mean survival time, dose: 32.0 mg/kg/injection, schedule: Q04DX003 (ip), vehicle: saline, evaluated on day 60) 136 % of control; (T/C endpoint: mean survival time, dose: 32.0 mg/kg/injection, schedule: Q08DX002 (ip), vehicle: saline) 125 % of control. The T/C (T/C endpoint: median survival time, dose: 32.0 mg/kg/injection, schedule: Q04DX003 (ip), vehicle: saline) is 131 % of control. Also, the survivor count by setting is: (T/C endpoint: mean survival time, dose: 8.0 mg/kg/injection, schedule: Q03HX008 (ip), vehicle: saline) 0 of 10; (T/C endpoint: mean survival time, dose: 8.0 mg/kg/injection, schedule: Q03HX016 (ip), vehicle: saline) 0 of 10; (T/C endpoint: mean survival time, dose: 8.0 mg/kg/injection, schedule: Q03HX024 (ip), vehicle: saline) 0 of 10; (T/C endpoint: mean survival time, dose: 16.0 mg/kg/injection, schedule: Q01DX005 (ip), vehicle: saline) 10 of 10; under setting [1], 7 of 10; (T/C endpoint: mean survival time, dose: 16.0 mg/kg/injection, schedule: Q03HX008 (ip), vehicle: saline) 0 of 10. Besides, the survivor count by setting is: (T/C endpoint: mean survival time, dose: 16.0 mg/kg/injection, schedule: Q03HX016 (ip), vehicle: saline) 0 of 10; (T/C endpoint: mean survival time, dose: 16.0 mg/kg/injection, schedule: Q03HX024 (ip), vehicle: saline) 0 of 10; (T/C endpoint: mean survival time, dose: 18.56 mg/kg/injection, schedule: Q01DX005 (ip), vehicle: saline) 10 of 10; (T/C endpoint: mean survival time, dose: 32.0 mg/kg/injection, schedule: Q01DX005 (ip), vehicle: saline) 0 of 10, 3 of 6, 10 of 10; (T/C endpoint: mean survival time, dose: 32.0 mg/kg/injection, schedule: Q01DX005 (oral), vehicle: saline) 1 of 10; (T/C endpoint: mean survival time, dose: 32.0 mg/kg/injection, schedule: Q01DX005 (sc), vehicle: saline) 3 of 10. The survivor count is, setting by setting: (T/C endpoint: mean survival time, dose: 32.0 mg/kg/injection, schedule: Q01DX009 (ip), vehicle: saline) 0 of 10; (T/C endpoint: mean survival time, dose: 32.0 mg/kg/injection, schedule: Q03HX008 (ip), vehicle: saline) 0 of 10; (T/C endpoint: mean survival time, dose: 32.0 mg/kg/injection, schedule: Q03HX016 (ip), vehicle: saline) 0 of 10; (T/C endpoint: mean survival time, dose: 37.12 mg/kg/injection, schedule: Q01DX005 (ip), vehicle: saline) 10 of 10; (T/C endpoint: mean survival time, dose: 64.0 mg/kg/injection, schedule: Q01DX001 (ip), vehicle: saline) 1 of 10; (T/C endpoint: mean survival time, dose: 64.0 mg/kg/injection, schedule: Q01DX001 (oral), vehicle: saline) 6 of 10. Besides, the survivor count is 0 of 10 and 0 of 6 (T/C endpoint: mean survival time, dose: 64.0 mg/kg/injection, schedule: Q01DX005 (ip), vehicle: saline); 0 of 10 (T/C endpoint: mean survival time, dose: 64.0 mg/kg/injection, schedule: Q01DX005 (oral), vehicle: saline); 0 of 10 (T/C endpoint: mean survival time, dose: 64.0 mg/kg/injection, schedule: Q01DX005 (sc), vehicle: saline); 1 of 10 and 5 of 10 (T/C endpoint: mean survival time, dose: 64.0 mg/kg/injection, schedule: Q04DX003 (ip), vehicle: saline); 0 of 10 (T/C endpoint: mean survival time, dose: 64.0 mg/kg/injection, schedule: Q08DX002 (ip), vehicle: saline); 10 of 10 (T/C endpoint: mean survival time, dose: 74.24 mg/kg/injection, schedule: Q04DX003 (ip), vehicle: saline). For the same compound, the survivor count runs as follows: (T/C endpoint: mean survival time, dose: 128.0 mg/kg/injection, schedule: Q01DX001 (ip), vehicle: saline) 0 of 10; (T/C endpoint: mean survival time, dose: 128.0 mg/kg/injection, schedule: Q01DX001 (oral), vehicle: saline) 0 of 10; (T/C endpoint: mean survival time, dose: 128.0 mg/kg/injection, schedule: Q01DX001 (sc), vehicle: saline) 4 of 10; (T/C endpoint: mean survival time, dose: 128.0 mg/kg/injection, schedule: Q01DX005 (oral), vehicle: saline) 0 of 10; (T/C endpoint: mean survival time, dose: 128.0 mg/kg/injection, schedule: Q04DX003 (ip), vehicle: saline) 0 of 10; (T/C endpoint: mean survival time, dose: 128.0 mg/kg/injection, schedule: Q08DX002 (ip), vehicle: saline) 0 of 10. Moreover, the survivor count (T/C endpoint: mean survival time, dose: 218.0 mg/kg/injection, schedule: Q04DX003 (ip), vehicle: saline) is 0 of 6; the survivor count (T/C endpoint: mean survival time, dose: 256.0 mg/kg/injection, schedule: Q01DX001 (ip), vehicle: saline) is 0 of 10; the survivor count (T/C endpoint: mean survival time, dose: 256.0 mg/kg/injection, schedule: Q01DX001 (oral), vehicle: saline) is 0 of 10; the survivor count (T/C endpoint: mean survival time, dose: 256.0 mg/kg/injection, schedule: Q01DX001 (sc), vehicle: saline) was 0 of 10; the survivor count (T/C endpoint: mean survival time, dose: 256.0 mg/kg/injection, schedule: Q08DX002 (ip), vehicle: saline) is recorded as 0 of 10; the survivor count (T/C endpoint: mean survival time, dose: 512.0 mg/kg/injection, schedule: Q01DX001 (oral), vehicle: saline) is reported as 0 of 10. Also, the survivor count reads like this: (T/C endpoint: mean survival time, dose: 512.0 mg/kg/injection, schedule: Q01DX001 (sc), vehicle: saline) 0 of 10; (T/C endpoint: mean survival time, dose: 1024.0 mg/kg/injection, schedule: Q01DX001 (oral), vehicle: saline) 0 of 10; (T/C endpoint: median survival time, dose: 64.0 mg/kg/injection, schedule: Q04DX003 (ip), vehicle: saline) 5 of 7.

Turning to `CCN(CC)Cc1ccccc1`, the survivor count was 1 of 6 (T/C endpoint: mean survival time, dose: 150.0 mg/kg/injection, schedule: Q01DX001 (ip), vehicle: other) and 0 of 6 (T/C endpoint: mean survival time, dose: 300.0 mg/kg/injection, schedule: Q01DX001 (ip), vehicle: other).

As to `Cc1ccc(N2C=[N+](C)c3ccc(C)cc3C2)cc1`, under “T/C endpoint: mean survival time, dose: 400.0 mg/kg/injection, schedule: Q04DX003 (ip), vehicle: Klucel (hydroxypropylcellulose) (HPC)”, the survivor count is 5 of 6.

Turning to `Nc1ccc(C(=O)C(=O)c2ccc(N)cc2)cc1`, the survivor count (T/C endpoint: mean survival time, dose: 300.0 mg/kg/injection, schedule: Q01DX001 (ip), vehicle: acetone) was 0 of 6.

These data come from PubChem BioAssay AID248 (DTP/NCI, 2004).
